Results from patent US20250320248A1, “MENAQUINONE-BINDING COMPOUNDS AND METHODS OF USE THEREOF” (The Rockefeller University, priority 2021, published 2025).
Some results were stated once for a whole list of compounds, not compound by compound. Starred links: 1 amine or outer side, 2 acyl side, 3 side chain; linkers in the order of their positions; H or OH if unused. Positions of bridges follow the written chain, without caps; N, C: chain ends. Non-standard residues stand in square brackets, D forms with d. Residues, ends and D or L forms follow the SMILES beside them. X1 = CCCCC[C@H](CC(=O)[*:1])O[*:2]; GABA = NCCCC(=O)O

Tested on: bacteria

Structure (SMILES) | MIC [µg/mL]
CCCCC[C@@H]1CC(=O)N[C@@H](C(C)C)C(=O)N[C@H](CCCNC(=N)N)C(=O)N[C@@H](C(C)C)C(=O)N[C@@H](C)C(=O)N2CCC[C@H]2C(=O)N[C@@H](CC(C)C)C(=O)N[C@H](CCCNC(=N)N)C(=O)N[C@@H](CCC(=O)O)C(=O)N[C@H](Cc2ccc(O)cc2)C(=O)N[C@H](Cc2c[nH]c3ccccc23)C(=O)NCCCC(=O)O1 [MBA3 Gly-4 to L-Ala] (V[dR]VAPL[dR]E[dY][dW][GABA]; linker N-C via X1) | > 64
CCCCC[C@@H]1CC(=O)N[C@@H](C(C)C)C(=O)N[C@H](CCCNC(=N)N)C(=O)N[C@@H](C(C)C)C(=O)NCC(=O)N2CCC[C@H]2C(=O)N[C@@H](CC(C)C)C(=O)N[C@H](CCCNC(=N)N)C(=O)N[C@@H](CCC(=O)O)C(=O)N[C@H](Cc2ccc(O)cc2)C(=O)N[C@H](C)C(=O)NCCCC(=O)O1 [MBA3 D-Trp-10 to D-Ala] (V[dR]VGPL[dR]E[dY][dA][GABA]; linker N-C via X1) | > 64
